No constants are given. Whether binding was seen depends on the method and setting. In cells and extracts the contact can be indirect. Some results given as binding are weak or reduced against the parent protein; the word gives no strength.

Chains of the proteins cited; added tags and fusions are not shown.
UniProt Q6IN02: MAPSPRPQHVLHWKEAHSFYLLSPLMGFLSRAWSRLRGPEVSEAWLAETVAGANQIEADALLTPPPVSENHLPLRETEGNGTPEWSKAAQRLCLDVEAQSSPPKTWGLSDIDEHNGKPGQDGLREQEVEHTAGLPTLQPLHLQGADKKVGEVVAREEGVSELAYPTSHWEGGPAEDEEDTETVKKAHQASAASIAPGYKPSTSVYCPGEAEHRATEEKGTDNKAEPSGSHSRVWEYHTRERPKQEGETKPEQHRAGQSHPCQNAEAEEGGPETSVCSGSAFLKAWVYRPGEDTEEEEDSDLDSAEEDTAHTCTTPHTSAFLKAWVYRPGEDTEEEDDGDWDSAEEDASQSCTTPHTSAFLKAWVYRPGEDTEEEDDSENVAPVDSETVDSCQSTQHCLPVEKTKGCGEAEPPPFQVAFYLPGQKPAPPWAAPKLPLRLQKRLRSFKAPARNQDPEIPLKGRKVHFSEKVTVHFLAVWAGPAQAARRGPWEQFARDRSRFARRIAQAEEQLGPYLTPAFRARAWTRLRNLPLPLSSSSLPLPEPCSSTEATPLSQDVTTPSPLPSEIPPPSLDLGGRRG

From paper PMC4741303 come the findings set out here.

For the assay, the target named is growth arrest and DNA damage‐inducible 34 (GADD34), endogenous in H9c2 cells (rat (endogenous in H9c2)) (UniProt Q6IN02). Nature of the assay: co-IP; pooled sucrose gradient fractions 12/13 of lysates of tunicamycin-treated H9c2 cells; IP with an anti-GADD34 antibody, immunoblot; endogenous proteins.

B1: NADPH oxidase‐4 (Nox4), endogenous in H9c2 cells (protein, UniProt Q924V1 1-578)
chain: MALSWRSWLANEGVKHLCLLVWLSLNVLLFWKTFLLYNQGPEYYYIHQMLGLGLCLSRASASVLNLNCSLILLPMCRTVLAYLRGSQKVPSRRTRRLLDKSKTLHITCGITICIFSGVHVAAHLVNALNFSVNYSEHFLALNAARYQNEDPRKLLFTTVPGLTGVCMVVVLFLMVTASTYAIRVSNYDIFWYTHNLFFVFYMLLLLHVSGGLLKYQTNLDTHPPGCISLNRTPSQNMSIADYVSEHFHGSLPGGFSKLEDHYQKTLVKICLEEPKFQAHFPQTWIWISGPLCLYCAERLYRCIRSNKPVTIISVINHPSDVMELRMIKENFKARPGQYIILHCPSVSALENHPFTLTMCPTETKATFGVHFKVVGDWTERFRDLLLPPSSQDSEILPFIQSRNYPKLYIDGPFGSPFEESLNYEVSLCVAGGIGVTPFASILNTLLDDWKPYKLRRLYFIWVCRDIQSFQWFADLLYVLHNKFWQENRPDFVNIQLYLSQTDGIQKIIGEKYHTLNSRLFIGRPRWKLLFDEIAKCNRGKTVGVFCCGPSSISKTLHNLSNRNNSYGTKFEYNKESFS
B1: the binding result is recorded as “binds”.
